Results are given in words; binding and its absence hold for the method and conditions named. Binding seen in cells or lysates may run through a third protein. Some entries that bind do so weakly or less than the wild type.
Target: T1, SNX17 (sorting nexin 17) (human (endogenous in HCC and 293T cells)) (UniProt Q15036)
T1 sequence: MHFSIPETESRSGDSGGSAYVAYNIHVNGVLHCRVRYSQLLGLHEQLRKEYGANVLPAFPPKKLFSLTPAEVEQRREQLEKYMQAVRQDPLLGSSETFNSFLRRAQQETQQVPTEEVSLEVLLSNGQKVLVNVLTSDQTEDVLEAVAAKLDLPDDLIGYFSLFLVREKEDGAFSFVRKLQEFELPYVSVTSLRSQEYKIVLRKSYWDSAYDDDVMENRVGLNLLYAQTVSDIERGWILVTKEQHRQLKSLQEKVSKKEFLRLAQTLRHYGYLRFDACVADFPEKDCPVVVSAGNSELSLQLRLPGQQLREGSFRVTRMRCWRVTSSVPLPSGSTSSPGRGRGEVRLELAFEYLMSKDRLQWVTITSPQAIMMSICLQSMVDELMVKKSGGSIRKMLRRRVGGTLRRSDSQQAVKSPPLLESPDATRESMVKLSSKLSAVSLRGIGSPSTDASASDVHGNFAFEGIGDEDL
Assay: co-IP; RIPA lysates of HCC and 293T cells; anti-SNX17 or anti-STAT3 antibody or control IgG on protein A/G agarose overnight at 4 °C, washed five times, western blot; also in cells with SNX17 knockdown or VPS35 knockdown

For VPS26A (from UniProt O75436 1-327), the binding was “binds”.
